# At least one peptide structure holds a part that was inferred or is arguable (an end, a ring closure or a residue). Starred links: 1 amine or outer side, 2 acyl side, 3 side chain; linkers in the order of their positions; H or OH if unused. Positions of bridges follow the written chain, without caps; N, C: chain ends. Residues, ends and D or L forms follow the SMILES beside them. Chains are numbered I, II in the order given. X1 = CCC1=C(C)c2cc3[nH]c(cc4nc(cc5[nH]c(cc1n2)c(C)c5CCC(=O)[*:1])C(CCC(=O)[*:2])=C4C)c(C)c3CC
# Chains of the proteins cited; added tags and fusions are not shown. Residues count along the entry.
# UniProt P29148, 287-590: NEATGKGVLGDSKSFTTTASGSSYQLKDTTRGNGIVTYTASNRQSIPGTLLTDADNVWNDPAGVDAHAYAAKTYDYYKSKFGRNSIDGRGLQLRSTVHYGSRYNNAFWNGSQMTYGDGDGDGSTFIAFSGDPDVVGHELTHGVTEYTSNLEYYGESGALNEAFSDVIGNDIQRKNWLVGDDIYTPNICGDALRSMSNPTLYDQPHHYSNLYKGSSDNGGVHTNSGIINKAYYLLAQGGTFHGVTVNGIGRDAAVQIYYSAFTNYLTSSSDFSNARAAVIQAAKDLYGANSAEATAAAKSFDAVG
# UniProt P00761, 9-231: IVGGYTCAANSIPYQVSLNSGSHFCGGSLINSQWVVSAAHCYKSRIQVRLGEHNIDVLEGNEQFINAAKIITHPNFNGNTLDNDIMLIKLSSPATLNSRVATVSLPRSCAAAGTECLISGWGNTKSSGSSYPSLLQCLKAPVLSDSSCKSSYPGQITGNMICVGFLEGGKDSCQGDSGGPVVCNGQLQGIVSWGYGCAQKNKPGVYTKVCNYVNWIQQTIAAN
# UniProt P00791, 60-385: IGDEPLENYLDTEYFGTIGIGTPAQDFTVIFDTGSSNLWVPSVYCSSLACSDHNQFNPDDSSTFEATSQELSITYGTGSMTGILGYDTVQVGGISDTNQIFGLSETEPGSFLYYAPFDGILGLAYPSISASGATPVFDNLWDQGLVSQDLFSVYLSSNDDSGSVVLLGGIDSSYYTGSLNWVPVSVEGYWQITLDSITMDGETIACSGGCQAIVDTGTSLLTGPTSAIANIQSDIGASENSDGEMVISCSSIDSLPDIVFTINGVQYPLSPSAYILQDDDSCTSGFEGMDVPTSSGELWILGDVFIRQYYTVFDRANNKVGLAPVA
# What was measured:
# papain (Sigma P-3125) = biological target: T1, papain (Sigma P-3125) (Carica papaya, UniProt P00784); test: Enzyme specificity by decrease in porphyrin fluorescence; assay type: biochemical; settings: 0.01 mg porphyrin and 1.0 mg enzyme per ml
# T1 sequence (P00784 134-345): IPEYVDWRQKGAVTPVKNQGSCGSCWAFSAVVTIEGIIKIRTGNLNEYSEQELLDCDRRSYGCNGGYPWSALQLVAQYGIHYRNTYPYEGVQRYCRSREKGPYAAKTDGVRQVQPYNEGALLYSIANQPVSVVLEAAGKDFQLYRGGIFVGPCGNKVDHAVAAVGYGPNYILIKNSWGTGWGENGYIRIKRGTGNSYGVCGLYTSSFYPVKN
# [1] = test system: protease V (Sigma P-5005); test: as above; assay type: biochemical; settings: 0.01 mg porphyrin and 1.0 mg enzyme per ml
# [2] = test system: protease XIV (Sigma P-5147); test: as above; assay type: biochemical; settings: 0.01 mg porphyrin and 1.0 mg enzyme per ml
# [3] = biological target: chymotrypsin Type II (Sigma C4128) (Bos taurus, UniProt P00766); test: as above; assay type: biochemical
# [4] = test system: collagenase IV (Sigma C-5138); test: as above; assay type: biochemical
# Clostridium perfringens = assay type: cell-based
# [5] = test system: collagenase 1A (Sigma C-9891); test: Enzyme specificity by decrease in porphyrin fluorescence; assay type: biochemical
# [6] = test system: pronase (B grade, Calbiochem); test: as above; assay type: biochemical; settings: 0.01 mg porphyrin and 1.0 mg enzyme per ml
# [7] = Enzyme specificity by porphyrin fluorescence, water (no enzyme) control; assay type: biochemical; settings: 0.01 mg porphyrin per ml, spectrophotofluorometer, saturation level 16,000
# [8] = biological target: T2, protease (grade II, Dispase, B-M) (Paenibacillus polymyxa, UniProt P29148); test: Enzyme specificity by decrease in porphyrin fluorescence; assay type: biochemical; settings: 0.01 mg porphyrin and 1.0 mg enzyme per ml, spectrophotofluorometer, saturation level 16,000
# T2 construct: purchased B-M
# [9] = test system: collagenase or other enzymes; test: Restoration of porphyrin fluorescence by 8 molar urea after enzyme treatment; assay type: biochemical; settings: addition of an equal volume of 8 molar urea to the enzyme mixtures
# trypsin (Difco 0152-13) = biological target: T3, trypsin (Difco 0152-13) (Sus scrofa, UniProt P00761); test: Enzyme specificity by decrease in porphyrin fluorescence; assay type: biochemical; settings: 0.01 mg porphyrin and 1.0 mg enzyme per ml
# T3 construct: purchased Difco 0152-13
# pepsin A (BDH 3.4.23.1) = biological target: T4, pepsin A (BDH 3.4.23.1) (Sus scrofa, UniProt P00791); test: as above; assay type: biochemical; settings: 0.01 mg porphyrin and 1.0 mg enzyme per ml, spectrophotofluorometer, saturation level 16,000
# T4 construct: purchased BDH
# [10] = spectrophotofluorometer, saturation level 16,000
smiles,measurement,setting,value
"CCC1=C(C)c2cc3[nH]c(cc4nc(cc5[nH]c(cc1n2)c(C)c5CCC(=O)NCC(=O)N1CCC[C@H]1C(=O)N[C@@H](CC(C)C)C(=O)NCC(=O)N1CCC[C@H]1C(=O)N[C@@H](C)C(=O)N[C@@H](CCCCN)C(=O)N[C@@H](CCCCN)C(=O)N[C@@H](CCCCN)C(=O)N[C@@H](CCCCN)C(=O)O)C(CCC(=O)NCC(=O)N1CCC[C@H]1C(=O)N[C@@H](CC(C)C)C(=O)NCC(=O)N1CCC[C@H]1C(=O)N[C@@H](C)C(=O)N[C@@H](CCCCN)C(=O)N[C@@H](CCCCN)C(=O)N[C@@H](CCCCN)C(=O)N[C@@H](CCCCN)C(=O)O)=C4C)c(C)c3CC [porphyrin compound of Example 1, mesoporphyrin IX (Gly--Pro--Leu--Gly--Pro--Ala--Lys--Lys--Lys--Lys)2] (I: GPLGPAKKKK-OH / II: GPLGPAKKKK-OH; linker I:N-II:N via X1)","porphyrin fluorescence, incubation time = 90 minutes",papain (Sigma P-3125); [10],"16,383 fluorescence units"
same,Time to decrease in fluorescence (visual observation),papain (Sigma P-3125); room temperature,> 30 min
same,"porphyrin fluorescence, incubation time = 90 minutes",[1]; [10],"1,512 fluorescence units"
same,Time to decrease in fluorescence (visual observation),[1]; room temperature,approximately 2.5 minutes
same,"porphyrin fluorescence, incubation time = 90 minutes",[2]; [10],"2,725 fluorescence units"
same,Time to decrease in fluorescence (visual observation),[2]; room temperature,approximately 3 minutes
same,"porphyrin fluorescence, incubation time = 90 minutes","[3]; chymotrypsin Type II, 0.01 mg porphyrin and 1.0 mg enzyme per ml, spectrophotofluorometer, saturation level 16,000","15,188 fluorescence units"
same,Time to decrease in fluorescence (visual observation),"[3]; chymotrypsin Type II, room temperature, 0.01 mg porphyrin and 1.0 mg enzyme per ml",> 30 min
same,change in porphyrin fluorescence on repeated measurement,"[3]; chymotrypsin mixture, at intervals for up to 24 hours",slow decrease in porphyrin fluorescence
same,enzyme specificity,[4]; collagenase IV versus enzymes having other specificities,substantial specificity
same,"porphyrin fluorescence, incubation time = 90 minutes","[4]; collagenase IV, 0.01 mg porphyrin and 1.0 mg enzyme per ml, spectrophotofluorometer, saturation level 16,000",658 fluorescence units
same,Time to decrease in fluorescence (visual observation),"[4]; collagenase IV, room temperature, 0.01 mg porphyrin and 1.0 mg enzyme per ml",less than 5 seconds
same,porphyrin fluorescence,Clostridium perfringens,not diminished
same,time until porphyrin fluorescence was greatly diminished,Clostridium perfringens,less than 1 minute
same,enzyme specificity,[5]; collagenase 1A versus enzymes having other specificities,substantial specificity
same,"porphyrin fluorescence, incubation time = 90 minutes","[5]; collagenase 1A, 0.01 mg porphyrin and 1.0 mg enzyme per ml, spectrophotofluorometer, saturation level 16,000",879 fluorescence units
same,Time to decrease in fluorescence (visual observation),"[5]; collagenase 1A, room temperature, 0.01 mg porphyrin and 1.0 mg enzyme per ml",less than 5 seconds
same,"porphyrin fluorescence, incubation time = 90 minutes",[6]; [10],"2,314 fluorescence units"
same,Time to decrease in fluorescence (visual observation),[6]; room temperature,approximately 3 minutes
same,"porphyrin fluorescence, incubation time = 90 minutes",[7],"15,775 fluorescence units"
same,"porphyrin fluorescence, incubation time = 90 minutes",[8],"2,248 fluorescence units"
same,porphyrin fluorescence after addition of urea,[9],largely restored
same,"porphyrin fluorescence, incubation time = 90 minutes",trypsin (Difco 0152-13); [10],"1,169 fluorescence units"
same,Time to decrease in fluorescence (visual observation),trypsin (Difco 0152-13); room temperature,approximately 4 minutes
same,"porphyrin fluorescence, incubation time = 90 minutes",pepsin A (BDH 3.4.23.1),"2,610 fluorescence units"

# From patent publication US5618790A, “Protease mediated drug delivery system” (Queen's University at Kingston, priority 1994, dated 1997)
